Percent effect of library compounds

Mtb cholesterol medium: 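Phenotypic screen: M. tuberculosis growth, cholesterol and DPPC medium, 4 days; the read-out is not stated. Concentration: 50 µM. Direction is inferred from retests: higher values go with more growth inhibition. Size under these conditions: about 69,000 compounds, about 370 of them at 50% or above in at least one test.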
Mtb glucose medium: 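Phenotypic screen: M. tuberculosis growth, glucose 7H9 medium, 3 days; the read-out is not stated. Compounds at 50 µM. Direction is inferred from retests: higher values go with more growth inhibition. Size under these conditions: about 69,000 compounds, about 760 of them at 50% or above in at least one test.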

The filed quantity is “Percent Effect” (%). How 0% and 100% were set is not recorded. Most values in the screen are low, and negative values occur. Compounds were drawn at random from those tested, without regard to their results. Two or more numbers in one place are separate tests of the same structure; such repeats can differ widely.

With [H][C@]12CC[C@@H](N(C)c3ccc(C)nn3)[C@@]1([H])CN(C(=O)CC1CCOCC1)C2 the screen gave Mtb cholesterol medium: -3.085%; Mtb glucose medium: -2.328%. COCC(=O)NC(c1ccccc1)c1ccc2c(c1)CCCO2 (configuration not stated) gave Mtb cholesterol medium: -10.97%; Mtb glucose medium: 27.6% & 3.16%. [H][C@@]12CNC[C@]1(C(=O)O)CN(C(=O)Nc1ccccc1-c1ccccc1)C2 gave Mtb cholesterol medium: -15.12%; Mtb glucose medium: -27.17%. With O=C(O)C(F)(F)F.[H][C@@]12CCN(c3nnc(C)s3)C[C@@]1([H])O[C@@H](c1nc(C)no1)C2 the screen gave Mtb cholesterol medium: -13.06%; Mtb glucose medium: -3.943%.

CN(CCc1ccncc1)Cc1c(C2CCCC2)[nH]c2ncccc12 gave Mtb cholesterol medium: -7.234% & -5.657%; Mtb glucose medium: 8.092%. Cc1nnc(CN2CCCC2c2c(C)nn(C)c2Cl)o1 (configuration not stated) gave Mtb cholesterol medium: -16.03%; Mtb glucose medium: 25.86%. Cn1ccc(CN2CCC(Oc3ccccc3)CC2)cc1=O gave Mtb cholesterol medium: -23.77%; Mtb glucose medium: -5.817%. Cc1nc(C)c(CN2CCOC[C@H](Oc3ccccc3)C2)s1 read Mtb cholesterol medium: -13.03%; Mtb glucose medium: -0.2865% & 6.479%.

CS(=O)(=O)N1CC2(CCN(CC3CC3)C2)Cc2ccccc21 (configuration not stated) read Mtb cholesterol medium: -14.48%; Mtb glucose medium: 13.62%. With Cc1nc(NCc2ccc(C)o2)cc(C(=O)N2CCOCC2)n1 the screen gave Mtb cholesterol medium: -13.31%; Mtb glucose medium: 3.201%. O=C(NC1CC1)NC(c1cc(F)ccc1F)C1CC1 (configuration not stated) read Mtb cholesterol medium: -12.54%; Mtb glucose medium: 10.1%. CS(=O)(=O)N[C@@H]1CN(Cc2ccc3ncccc3c2)C[C@H]1O gave Mtb cholesterol medium: 3.68% & -5.596%; Mtb glucose medium: -30.58%.

Cn1cc(C2CC(=O)NC23CCN(C(=O)c2cccnc2)CC3)cn1.O=C(O)C(F)(F)F (configuration not stated) read Mtb cholesterol medium: -23.48%; Mtb glucose medium: 7.042%. O=C(O)CC(O)(CC(=O)O)C(=O)O.OCCN(Cc1ccncc1)CC1(c2ccc(Cl)cc2)CC1 read Mtb cholesterol medium: 0.1756%; Mtb glucose medium: 9.032%. Cc1cccc(CN2CCCC(c3nccs3)C2)n1 (configuration not stated) gave Mtb cholesterol medium: -8.34% & -0.9029%; Mtb glucose medium: -10.46%. CCS(=O)(=O)CC(=O)NC(C)c1ccc(OCCC(C)C)cc1 (configuration not stated) gave Mtb cholesterol medium: 26.27%; Mtb glucose medium: 38.97%.

O=C(O)C(F)(F)F.O=C(O)C(F)(F)F.[H][C@@]12OCCC[C@]1([H])N(Cc1ccc(C)o1)C[C@@H]2N1CCOCC1 gave Mtb cholesterol medium: -9.642% & -13.78%; Mtb glucose medium: -18.77% & -5.299%. CC(C)NC(=O)C1CCC2(CCN(c3ncccn3)CC2)CO1 (configuration not stated) read Mtb cholesterol medium: -3.969%; Mtb glucose medium: -8.43% & -27.87%. With CC(C)N(C)Cc1cn2c(n1)CN(Cc1ccsc1)CC2.O=C(O)C(F)(F)F.O=C(O)C(F)(F)F the screen gave Mtb cholesterol medium: -19.62%; Mtb glucose medium: -26.39%. Cn1cc(CNCCC(=O)NCc2ccccc2)c(-c2cccnc2)n1 read Mtb cholesterol medium: -3.076%; Mtb glucose medium: -2.982%.

With OC(CNC1CCSCC1)c1cccc(OCc2ccccc2)c1 (configuration not stated) the screen gave Mtb cholesterol medium: 15.34%; Mtb glucose medium: -4.893%. With CCOCc1nc2c(c(N3CCCn4nc(C)cc4C3)n1)CCNCC2 the screen gave Mtb cholesterol medium: 14.6%; Mtb glucose medium: -41.13% & 21.34%. For CC(C)C(C)NC(=O)CNc1cc2c(cc1Cl)NC(=O)CO2 (configuration not stated) the result was Mtb cholesterol medium: -15.27%; Mtb glucose medium: 12.43%. For Cc1nnc(CN(Cc2ccc(Cl)c(Cl)c2)C2CC2)o1 the result was Mtb cholesterol medium: 5.493% & 25.49%; Mtb glucose medium: 21.61%.

For Cc1cnn(CC2CCCCN2C(=O)c2ccc(CN(C)C)cc2)c1 (configuration not stated) the result was Mtb cholesterol medium: -3.837%; Mtb glucose medium: 11.99%. For O=C(CN(Cc1ccccc1)CC1CCOCC1)NC(=O)NC1CC1 the result was Mtb cholesterol medium: -21.77%; Mtb glucose medium: -42.93%. NC1(c2nc(-c3ccccc3)cc(=O)[nH]2)CCCCC1 read Mtb cholesterol medium: -11.36%; Mtb glucose medium: -21.3% & 1.816%. COc1cccc(COCC(=O)N2CCCC(n3cncn3)C2)c1 (configuration not stated) read Mtb cholesterol medium: -27.22%; Mtb glucose medium: -7.09%.

COc1ccc(Br)cc1CN(C)C(C)c1nc(C)no1 (configuration not stated) gave Mtb cholesterol medium: 14.91%; Mtb glucose medium: 28.41% & 11.18%. Result for COc1ccc2c(c1)OCC(Cc1ccc(N(C)C)nc1)C2 (configuration not stated) was Mtb cholesterol medium: 11.56%; Mtb glucose medium: 10.24%.

The last 3 entries again:

{"smiles": "COc1cccc(COCC(=O)N2CCCC(n3cncn3)C2)c1", "stereo": "configuration not stated", "Mtb cholesterol medium": -27.22, "Mtb glucose medium": -7.09}
{"smiles": "COc1ccc(Br)cc1CN(C)C(C)c1nc(C)no1", "stereo": "configuration not stated", "Mtb cholesterol medium": 14.91, "Mtb glucose medium": "28.41 & 11.18"}
{"smiles": "COc1ccc2c(c1)OCC(Cc1ccc(N(C)C)nc1)C2", "stereo": "configuration not stated", "Mtb cholesterol medium": 11.56, "Mtb glucose medium": 10.24}

Source: ChEMBL document CHEMBL3988442, “University of Dundee, Small-Polar-MMV Screening Library” (2021).